Measurements taken from patent US20240409517A1, “ORGANIC COMPOUNDS” (GIVAUDAN SA, priority 2021, published 2024).
Some results were stated once for a whole list of compounds, not compound by compound. For some assays here: For at least one compound, name, drawing or mass did not settle the structure. Where a SMILES comes first, the peptide text is derived from it.

What was measured:
Assay type in all cases: in vivo
[1] = tested on: sensory panel; experiment: Taste in water by a sensory panel; conditions: 50 ppm
[2] = tested on: sensory panel; experiment: Salt enhancement in 0.5% NaCl aqueous solution, sensory panel; conditions: 0.5% NaCl aq. solution with 50 ppm compound, compared with 0.5% NaCl alone
Text: The solutions were tasted by a sensory panel. Solution A was describes as “salty”.
Aqueous solutions comprising 0.5% NaCl and 50 ppm of the compounds of example 2-21, respectively, have been prepared and tasted by a sensory panel in comparison with an aqueous solution comprising 0.5% NaCl.
Aqueous solutions comprising 0.5% NaCl and 50 ppm of the compounds of example 38-58, respectively, have been prepared and tasted by a sensory panel in comparison with an aqueous solution comprising 0.5% NaCl.

[3] = tested on: sensory panel; experiment: Umami enhancement in savoury model solution (NaCl, MSG, Ribotides), sensory panel; conditions: 0.5% NaCl, 0.03% MSG, 0.007% Ribotides with 50 ppm compound, compared with solution A without compound
Text: The solutions were tasted by a sensory panel. Solution A is a model solution for savoury taste, containing MSG (monosodium glutamate) and Ribotides (IMP/GMP, 50/50 mixture) as savoury taste enhancer.
Two aqueous solutions have been prepared: • A) 0.5% NaCl, 0.03% MSG, 0.007% Ribotides, and • B) 0.5% NaCl, 0.03% MSG, 0.007% Ribotides and 50 ppm of the compound of example 38-58, respectively.

Row | SMILES | taste in water [1] | salty taste versus 0.5% NaCl solution [2] | saltiness and umami versus savoury model solution [3]
1 | N[C@@H](Cc1c[nH]cn1)C(=O)N[C@@H](Cc1ccc(O)cc1)C(=O)O [Example 3, L-Histidyl-L-tyrosine] (H-His-Tyr-OH) | no taste | more salty | 
2 | N[C@@H](Cc1c[nH]cn1)C(=O)N[C@@H](Cc1c[nH]cn1)C(=O)O [Example 5, L-Histidyl-L-histidine] | no taste | more salty | 
3 | O=C(/C=C/c1c[nH]cn1)NCc1ccccc1 [Example 45, (2E)-N-benzyl-3-(1H-imidazol-4-yl) prop-2-enamide] |  | more salty | strong boost of saltiness and umami
4 | O=C(/C=C/c1c[nH]cn1)NCCc1ccccc1 [Example 58, (2E)-3-(1H-imidazol-4-yl)-N-(2-phenylethyl) prop-2-enamide] |  | more salty | strong boost of saltiness and umami
